PubChem BioAssay AID1671195 | Yale University – 2021

Assay: 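Regulators of LDL receptor activity judged by labelled LDL uptake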 (primary screen)
System: human Huh7 hepatoma cells
Reagent: siRNA pool against human genes, 18 nM
Duration: about 2 to 2.5 days of knockdown, then 8 h LDL uptake
Treatment: DiI-labelled LDL at 30 µg/ml for 8 h, in lipoprotein-deficient serum medium
Detection: 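Fluorescent LDL signal imaged in cells, scaled to the plate median, robust z-score for each replicate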
Reading the numbers: robust z-score: higher = more LDL uptake after knockdown
Rule for the call: 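a gene counts as active if at least two replicate z-scores exceed ±2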
Shown is an unselected part of about 22,000 reagents tested. Over the whole deposit, about 1,510 (6.9%) got an active call. 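Active includes knockdowns raising or lowering LDL uptake; positive z-scores mean more uptake, negative mean less.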 A number with no mark means an inactive call. Reagents against one gene are numbered here. Reagent sequences are not shown.

Target gene	pool no.	robust z-score, replicate 1	robust z-score, replicate 2	robust z-score, replicate 3
DCTN3 (dynactin subunit 3)	1	0.396	-0.297	0.957
YY1 (YY1 transcription factor)	1	2.41	1.36	1.54
KDM4A (lysine demethylase 4A)	1	1.11	1.13	-0.936
MACROH2A1 (macroH2A.1 histone)	1	0.0841	0.322	-0.172
FAM3A (FAM3 metabolism regulating signaling molecule A)	1	-1.84	-1.74	-2.11
LINC02870 (long independently transcribed non-coding RNA 2870)	1	0.544	0.304	0.822
DNHD1 (dynein heavy chain domain 1)	1	-0.71	0.179	0.0674
DNHD1 (dynein heavy chain domain 1)	2	-0.531	-0.291	-0.563
DNHD1 (dynein heavy chain domain 1)	3	-1.53	-1.47	-1.38
PAX3 (paired box 3)	1	2.22 (active)	2.06	2.37
PCNX4 (pecanex 4)	1	-0.415	-1.73	-0.964
CHST14 (carbohydrate sulfotransferase 14)	1	6.24 (active)	3.19	5.69
BEST3 (bestrophin 3)	1	1.32	1.65	1.64
BEST3 (bestrophin 3)	2	-0.863	-0.359	-1.03
E2F4 (E2F transcription factor 4)	1	1.58	1.47	-0.783
NCOA4 (nuclear receptor coactivator 4)	1	0.476	0.196	0.565
LOC391353 (retired record)	1	0.145	-0.67	-0.498
TSPAN31 (tetraspanin 31)	1	1.25	1.48	0.963
STARD5 (StAR related lipid transfer domain containing 5)	1	0.195	1.09	-0.689
CD40 (CD40 molecule)	1	0.244	-0.0173	-0.117
RUMY4 (RUMY family member 4)	1	1.27	1.77	1.65
PRDM10-DT (PRDM10 divergent transcript)	1	1.43	1.58	0.866
LIPI (lipase I)	1	-4.86 (active)	2.31	2.85
LOC390880 (retired record)	1	-1.39	-1.35	-1.56
FGF4 (fibroblast growth factor 4)	1	-1.57	-0.662	-0.965
CDC42EP5 (CDC42 effector protein 5)	1	1.01	1.25	0.79
HOXB3 (homeobox B3)	1	-1.05	-1.2	-0.911
GRM4 (glutamate metabotropic receptor 4)	1	-0.452	-1.34	-0.768
BTRC	1	2.22	1.62	1.84
TIGD4 (tigger transposable element derived 4)	1	-2.15	0.606	0.26
DDOST	1	0.502	-0.551	0.0699
PRDM16 (PR/SET domain 16)	1	0.914	1.32	1.97
TEF (TEF transcription factor, PAR bZIP family member)	1	-0.415	0.731	1.1
C3 (complement C3)	1	2.86 (active)	0.774	2.31
GALNT12 (polypeptide N-acetylgalactosaminyltransferase 12)	1	2.57 (active)	2.22	2.62
NAT10 (N-acetyltransferase 10)	1	1.67	0.947	1.26
SCAMP4	1	-1.67	-0.41	-0.764
RAD23B (RAD23 nucleotide excision repair protein B)	1	-2.02 (active)	-2.72	-1.74
FMOD (fibromodulin)	1	-0.853	-1.51	-1.34
PLEKHM3 (pleckstrin homology domain containing M3)	1	-1.31	-1.36	-1.26
OTUD7B (OTU deubiquitinase 7B)	1	-2	-0.86	-1.22
TNNT3 (troponin T3, fast skeletal type)	1	-0.564	0.432	-0.257
SMIM26 (small integral membrane protein 26)	1	-1.41 (active)	-2.04	-1.91
LONP2 (lon peptidase 2, peroxisomal)	1	1.46	-2.33	2.03
GAREM1 (GRB2 associated regulator of MAPK1 subtype 1)	1	1.96	1.33	1.63
MSL1 (MSL complex subunit 1)	1	0.644	0.768	0.378

7 entries from above, ordered by “robust z-score, replicate 3”, lowest first:
Target gene	pool no.	robust z-score, replicate 1	robust z-score, replicate 2	robust z-score, replicate 3
E2F4 (E2F transcription factor 4)	1	1.58	1.47	-0.783
STARD5 (StAR related lipid transfer domain containing 5)	1	0.195	1.09	-0.689
LOC391353 (retired record)	1	0.145	-0.67	-0.498
CD40 (CD40 molecule)	1	0.244	-0.0173	-0.117
NCOA4 (nuclear receptor coactivator 4)	1	0.476	0.196	0.565
TSPAN31 (tetraspanin 31)	1	1.25	1.48	0.963
RUMY4 (RUMY family member 4)	1	1.27	1.77	1.65
